The source of these data is US20050148035A1.

Sequences of proteins named here, by UniProt entry; tags and fusion partners are left off. A change or cut given only in a name is not applied to a line headed by its entry. Residues count along the entry.
UniProt P05019, residues 49-118: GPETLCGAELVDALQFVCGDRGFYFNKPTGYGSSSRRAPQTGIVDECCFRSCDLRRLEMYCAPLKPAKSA
UniProt P17936: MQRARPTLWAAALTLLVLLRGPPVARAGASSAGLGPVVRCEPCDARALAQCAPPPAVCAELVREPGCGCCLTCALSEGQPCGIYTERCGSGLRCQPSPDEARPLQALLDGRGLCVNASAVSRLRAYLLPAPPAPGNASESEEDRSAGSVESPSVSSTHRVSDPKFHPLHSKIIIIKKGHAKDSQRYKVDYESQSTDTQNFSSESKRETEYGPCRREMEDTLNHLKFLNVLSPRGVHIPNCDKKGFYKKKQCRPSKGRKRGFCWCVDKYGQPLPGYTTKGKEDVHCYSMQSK

These are yes or no findings as the source states them, for the method shown. Some entries that bind do so weakly or less than the wild type.

The experiment deals with native-sequence human IGF-I (human) (UniProt P05019). The experiment can be described thus: BIAcore. For orientation: SPR reads the build-up and loss of mass on a sensor chip optically.

“native-sequence human IGFBP-3 (from UniProt P17936 28-291)”: the binding entry is reported as “binds”.
